Data as given in PMC6521620.
These are yes or no findings as the source states them, for the method shown. In cells and extracts the contact can be indirect. Some results given as binding are weak or reduced against the parent protein; the word gives no strength.

Chains of the proteins cited; added tags and fusions are not shown. Residues count along the entry.
UniProt P21530, residues 690-1062: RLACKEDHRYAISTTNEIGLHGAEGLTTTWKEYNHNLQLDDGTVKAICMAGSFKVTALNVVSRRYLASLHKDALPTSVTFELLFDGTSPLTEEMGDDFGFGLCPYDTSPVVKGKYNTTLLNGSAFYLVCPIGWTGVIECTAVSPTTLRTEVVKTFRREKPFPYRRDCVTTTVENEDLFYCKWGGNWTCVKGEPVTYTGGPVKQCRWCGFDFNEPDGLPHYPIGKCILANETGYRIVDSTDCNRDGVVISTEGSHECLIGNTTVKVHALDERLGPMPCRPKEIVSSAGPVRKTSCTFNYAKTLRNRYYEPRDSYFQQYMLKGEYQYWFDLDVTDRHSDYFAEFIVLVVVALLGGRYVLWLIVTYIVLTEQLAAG
UniProt P61292: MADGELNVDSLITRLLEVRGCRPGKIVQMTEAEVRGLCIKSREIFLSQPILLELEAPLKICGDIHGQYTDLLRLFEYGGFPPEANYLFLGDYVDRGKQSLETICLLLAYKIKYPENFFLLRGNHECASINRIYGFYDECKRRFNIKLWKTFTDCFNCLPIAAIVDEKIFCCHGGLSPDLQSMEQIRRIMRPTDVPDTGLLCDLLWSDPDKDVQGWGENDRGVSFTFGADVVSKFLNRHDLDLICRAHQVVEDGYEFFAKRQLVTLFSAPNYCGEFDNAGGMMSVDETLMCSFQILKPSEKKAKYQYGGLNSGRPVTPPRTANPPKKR

Key:
[1] = biological target: CSFV E2 glycoprotein in CSFV strain Brescia (BICv)-infected SK6 cells (classical swine fever virus strain Brescia) (UniProt P21530); assay: co-IP
[2] = biological target: CSFV E2 glycoprotein in CSFV strain Brescia (BICv)-infected SK6 cells (classical swine fever virus strain Brescia) (UniProt P21530); assay: proximity ligation

## endogenous PPP1CB of SK6 swine kidney cells (from UniProt P61292 1-327)
[1]
  binding: binds
[2]
  binding: binds
